{"sequences": {"note": "Amino acid sequences for entries named in this document (tags omitted).", "UniProt Q06219": "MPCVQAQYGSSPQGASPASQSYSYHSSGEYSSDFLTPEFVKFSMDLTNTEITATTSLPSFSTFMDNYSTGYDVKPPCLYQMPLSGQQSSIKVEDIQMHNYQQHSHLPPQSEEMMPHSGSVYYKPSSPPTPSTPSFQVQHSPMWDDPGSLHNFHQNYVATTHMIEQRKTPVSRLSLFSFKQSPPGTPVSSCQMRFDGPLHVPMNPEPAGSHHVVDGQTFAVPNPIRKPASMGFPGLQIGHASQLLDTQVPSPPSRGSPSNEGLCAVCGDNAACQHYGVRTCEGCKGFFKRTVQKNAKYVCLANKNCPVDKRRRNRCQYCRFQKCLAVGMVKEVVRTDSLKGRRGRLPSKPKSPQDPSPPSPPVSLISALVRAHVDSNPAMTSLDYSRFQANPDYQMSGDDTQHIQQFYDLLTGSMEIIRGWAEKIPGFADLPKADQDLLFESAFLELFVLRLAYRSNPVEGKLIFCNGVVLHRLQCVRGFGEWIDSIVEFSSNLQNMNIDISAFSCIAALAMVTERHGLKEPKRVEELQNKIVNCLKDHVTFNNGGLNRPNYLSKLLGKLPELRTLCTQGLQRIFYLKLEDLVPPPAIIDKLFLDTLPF"}, "source": "patent US20110268748A1", "binders": {"B1": {"name": "NuIP-V5 (protein, not shown: small tags and cut ends)", "chain": "MASVPAEAETRQRLLRTVKKEVKQIMEEAVTRKFVHEDSSHIISFCAAVEACVLHGLRRRAAGFLRSNKIAALFMKVGKGFPPAEELSRKVQELEQLIESARNQIQGLQENVRKLPKLPNLSPLAIKHLWIRTALFERVLDKIVHYLVENSSKYYEKEALLMDPVDGPILASLLVGPCALEYTKMKTADHFWTDPSADELVQRHRIHSSHLRQDSPTKRPALCIQKRHSSGSMDDRPSISARDYVESLHQNSRATLLYGKNNVLVQPRDDMEAVPGYLSLHQTADVMTLKWTPNQLMNGSVGDLDYEKSVYWDYAVTIRLEEIVYLHCHQQVDSGGTVVLVSQDGIQRPPFRFPKGGHLLQFLSCLENGLLPHGQLDPPLWSQRGKGKVFPKLRKRSPQGSSESTSSDKEDDEATDYVFRIIYPGTQSEFVPQDLMDVSMNNLPPLWQPSPRKSSCSSCSQSGSADGGSTNGCNHERAPLKLLCDNMKYQILSRAFYGWLAYCRHLSTVRTHLSALVNHMIVSPDLPCDAGQGLTASIWEKYIQDSTTYPEQELLRLIYYGGVQPEIRRAVWPFLLGHYQFGMTEMERKEVDEQIHACYAQTMSEWLGCEAIVRQRERESHAAALAKCSSGASLDSHLHRMLHRDSTISNESSQSCSSGRQNLRLQSDSSSSTQVFESVDEVEQTEAEGRSEEKHPKIPNGNPANGTCSPDSGHPSSHNFSSGLSEHSEPSLSTEDSVLDAQRSLPAVFRPGDSSVEDGQSSEATTSRDEAPREELAVQDSLESDLLANESLEEFMSIPGSLDVALPEKDGAVMDGWPGEADKPSRADSEDNLSEEPEMESLFPALASLAVTSSANNEASPVSSSGVTYSPELLDLYTVNLHRIEKDVQRCDRSYWYFTAANLEKLRNIMCSYIWQHIEIGYVQGMCDLLAPLLVILDDEALAFSCFTELMKRMNQNFPHGGAMDTHFANMRSLIQILDSELFELMHQNGDYTHFYFCYRWFLLDFKRELVYDDVFSVWETIWAAKHVSSAHYVLFIALALVEVYRDIILENNMDFTDIIKFFNEMAERHNAKQILQLARDLVHKVQILIENK"}, "B2": {"name": "endogenous NuIP protein (mouse substantia nigra lysate) (protein)", "chain": "B1 chain"}, "B3": {"name": "VP16-NuIP (HSV VP16 activation domain fused to full-length NuIP) (protein)", "chain": "B1 chain"}}, "key": {"[1]": {"target": "Flag-Nurr1 (Flag-tagged full-length Nurr1) (UniProt Q06219)", "experiment": "coimmunoprecipitation from MN9D nuclear extract with anti-V5, Western blot with anti-Flag"}, "[2]": {"target": "endogenous Nurr1 protein (mouse substantia nigra lysate) (mouse) (UniProt Q06219)", "experiment": "coimmunoprecipitation from mouse SN lysate with anti-Nurr1, Western blot with anti-NuIP"}, "[3]": {"target": "Gal4NLBD (Gal4 DNA-binding domain fused to the full-length Nurr1 ligand binding domain) (UniProt P04386)", "experiment": "mammalian two-hybrid, luciferase reporter, MN9D cells"}}, "note": "These are yes or no findings as the source states them, for the method shown. For part of these data: In cells and extracts the contact can be indirect. Some entries that bind do so weakly or less than the wild type. For part of these data: Where a sequence is shown, tags or fusion partners need not be part of it.", "data": [{"binder": "B1", "values": [{"measurement": "binding", "setting": "[1]", "result": "binds"}]}, {"binder": "B2", "values": [{"measurement": "binding", "setting": "[2]", "result": "binds"}]}, {"binder": "B3", "values": [{"measurement": "binding", "setting": "[3]", "result": "binds"}]}]}
